Measured values from article PMC4957769.
No constants are given. Whether binding was seen depends on the method and setting. For part of these data: A result given as binding can be weak or reduced; the word gives no strength. For part of these data: Sequences can lack the tags named with a protein.

Legend:
[1] = molecular target: T1, MBP-OsHAK1-C, C-terminal domain of OsHAK1 (683-792 aa) (rice (Oryza sativa)) (UniProt Q6VVA6); assay: pull-down; 100 ug MBP-tagged bait on amylose resin, 15 ug GST-RUPO-C or GST as prey, 20 mM Tris-HCl, 150 mM NaCl, 1 mM DTT, pH 7.5, 4 C, 3 h; blots with anti-GST and anti-MBP; both purified
T1 sequence: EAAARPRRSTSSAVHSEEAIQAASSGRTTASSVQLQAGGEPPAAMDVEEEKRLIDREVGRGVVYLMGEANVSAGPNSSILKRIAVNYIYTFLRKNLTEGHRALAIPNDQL

[2] = molecular target: BD-RUPO-C, intracellular domain of RUPO without juxtamembrane region (515-845 aa) (rice (Oryza sativa)); assay: two-hybrid; library screen: bait BD-RUPO-C in Y2HGold mated with a prey cDNA library of germinated pollen in Y187; selection on SD/-His/-Leu/-Trp, then SD/-Ade/-His/-Leu/-Trp with x-alpha-Gal
[3] = molecular target: BD453-845, complete intracellular domain of RUPO (453-845 aa) (rice (Oryza sativa)); assay: two-hybrid; direct tests of BD-RUPO constructs against C-tails of OsHAKs in yeast; growth on quadruple dropout medium
[4] = molecular target: BD453-708*, RUPO 453-708 aa with K543R (rice (Oryza sativa)); assay: as above
[5] = molecular target: BD-RUPO-C, intracellular domain of RUPO without juxtamembrane region (515-845 aa) (rice (Oryza sativa)); assay: as above
[6] = molecular target: BD453-820*, RUPO 453-820 aa with K543R (rice (Oryza sativa)); assay: as above
[7] = molecular target: BD453-788*, RUPO 453-788 aa with K543R (rice (Oryza sativa)); assay: as above
[8] = molecular target: BD453-845*, intracellular domain of RUPO (453-845 aa) with K543R (rice (Oryza sativa)); assay: as above
[9] = molecular target: BD453-820, truncated intracellular domain of RUPO with JM (453-820 aa) (rice (Oryza sativa)); assay: as above

Molecule | binding [1] | binding [2] | binding [3] | binding [4] | binding [5] | binding [6] | binding [7] | binding [8] | binding [9]
GST-RUPO-C (515-845 aa of RUPO) (rice (Oryza sativa)) (domain or fragment) | binds | – | – | – | – | – | – | – | –
OsHAK1-C, 110-aa C-terminus of high-affinity K+ transporter OsHAK1 (two-hybrid prey) (domain or fragment, UniProt Q6VVA6 683-792) EAAARPRRSTSSAVHSEEAIQAASSGRTTASSVQLQAGGEPPAAMDVEEEKRLIDREVGRGVVYLMGEANVSAGPNSSILKRIAVNYIYTFLRKNLTEGHRALAIPNDQL | – | binds | binds | no binding | binds | no binding | no binding | no binding | binds
